# Assay results: the supplement of paper PMC12819154, “High-throughput peptide-centric local stability assay extends protein–ligand identification to membrane proteins, tissues and bacteria” (Nature Structural & Molecular Biology, 2025)
# Protein sequences, listed by entry. Tags and fused reporters are not part of them. Lines headed by an entry give the natural chain unless they say otherwise; changes in a name come on top.
# UniProt Q3U5Q7: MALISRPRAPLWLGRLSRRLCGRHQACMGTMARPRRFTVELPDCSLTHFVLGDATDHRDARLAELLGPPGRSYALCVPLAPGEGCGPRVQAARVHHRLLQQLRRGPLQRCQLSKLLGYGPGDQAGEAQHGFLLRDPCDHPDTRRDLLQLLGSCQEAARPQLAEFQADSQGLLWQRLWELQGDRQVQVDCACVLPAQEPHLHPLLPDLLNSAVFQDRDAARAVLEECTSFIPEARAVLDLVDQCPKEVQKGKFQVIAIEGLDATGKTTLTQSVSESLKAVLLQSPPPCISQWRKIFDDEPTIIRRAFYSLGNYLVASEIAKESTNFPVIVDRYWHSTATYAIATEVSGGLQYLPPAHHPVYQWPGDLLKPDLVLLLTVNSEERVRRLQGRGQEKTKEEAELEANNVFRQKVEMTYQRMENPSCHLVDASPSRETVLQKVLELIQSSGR
# UniProt Q5D1E7: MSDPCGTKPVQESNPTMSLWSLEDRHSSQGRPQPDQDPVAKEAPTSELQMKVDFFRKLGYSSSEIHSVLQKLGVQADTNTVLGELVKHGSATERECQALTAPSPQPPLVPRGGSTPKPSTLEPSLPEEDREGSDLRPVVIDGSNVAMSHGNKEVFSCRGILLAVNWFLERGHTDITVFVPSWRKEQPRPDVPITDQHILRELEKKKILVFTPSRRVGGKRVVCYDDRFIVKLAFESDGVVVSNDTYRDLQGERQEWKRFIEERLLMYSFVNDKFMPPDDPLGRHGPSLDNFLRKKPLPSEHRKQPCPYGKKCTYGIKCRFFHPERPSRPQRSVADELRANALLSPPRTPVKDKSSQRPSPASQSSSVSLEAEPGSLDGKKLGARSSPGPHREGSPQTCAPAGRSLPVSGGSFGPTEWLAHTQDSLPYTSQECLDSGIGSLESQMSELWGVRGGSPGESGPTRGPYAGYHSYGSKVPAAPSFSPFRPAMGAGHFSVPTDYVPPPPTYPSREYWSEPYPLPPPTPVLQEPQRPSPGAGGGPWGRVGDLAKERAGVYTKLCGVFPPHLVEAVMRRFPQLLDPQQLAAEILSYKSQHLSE
# UniProt Q3UHH1: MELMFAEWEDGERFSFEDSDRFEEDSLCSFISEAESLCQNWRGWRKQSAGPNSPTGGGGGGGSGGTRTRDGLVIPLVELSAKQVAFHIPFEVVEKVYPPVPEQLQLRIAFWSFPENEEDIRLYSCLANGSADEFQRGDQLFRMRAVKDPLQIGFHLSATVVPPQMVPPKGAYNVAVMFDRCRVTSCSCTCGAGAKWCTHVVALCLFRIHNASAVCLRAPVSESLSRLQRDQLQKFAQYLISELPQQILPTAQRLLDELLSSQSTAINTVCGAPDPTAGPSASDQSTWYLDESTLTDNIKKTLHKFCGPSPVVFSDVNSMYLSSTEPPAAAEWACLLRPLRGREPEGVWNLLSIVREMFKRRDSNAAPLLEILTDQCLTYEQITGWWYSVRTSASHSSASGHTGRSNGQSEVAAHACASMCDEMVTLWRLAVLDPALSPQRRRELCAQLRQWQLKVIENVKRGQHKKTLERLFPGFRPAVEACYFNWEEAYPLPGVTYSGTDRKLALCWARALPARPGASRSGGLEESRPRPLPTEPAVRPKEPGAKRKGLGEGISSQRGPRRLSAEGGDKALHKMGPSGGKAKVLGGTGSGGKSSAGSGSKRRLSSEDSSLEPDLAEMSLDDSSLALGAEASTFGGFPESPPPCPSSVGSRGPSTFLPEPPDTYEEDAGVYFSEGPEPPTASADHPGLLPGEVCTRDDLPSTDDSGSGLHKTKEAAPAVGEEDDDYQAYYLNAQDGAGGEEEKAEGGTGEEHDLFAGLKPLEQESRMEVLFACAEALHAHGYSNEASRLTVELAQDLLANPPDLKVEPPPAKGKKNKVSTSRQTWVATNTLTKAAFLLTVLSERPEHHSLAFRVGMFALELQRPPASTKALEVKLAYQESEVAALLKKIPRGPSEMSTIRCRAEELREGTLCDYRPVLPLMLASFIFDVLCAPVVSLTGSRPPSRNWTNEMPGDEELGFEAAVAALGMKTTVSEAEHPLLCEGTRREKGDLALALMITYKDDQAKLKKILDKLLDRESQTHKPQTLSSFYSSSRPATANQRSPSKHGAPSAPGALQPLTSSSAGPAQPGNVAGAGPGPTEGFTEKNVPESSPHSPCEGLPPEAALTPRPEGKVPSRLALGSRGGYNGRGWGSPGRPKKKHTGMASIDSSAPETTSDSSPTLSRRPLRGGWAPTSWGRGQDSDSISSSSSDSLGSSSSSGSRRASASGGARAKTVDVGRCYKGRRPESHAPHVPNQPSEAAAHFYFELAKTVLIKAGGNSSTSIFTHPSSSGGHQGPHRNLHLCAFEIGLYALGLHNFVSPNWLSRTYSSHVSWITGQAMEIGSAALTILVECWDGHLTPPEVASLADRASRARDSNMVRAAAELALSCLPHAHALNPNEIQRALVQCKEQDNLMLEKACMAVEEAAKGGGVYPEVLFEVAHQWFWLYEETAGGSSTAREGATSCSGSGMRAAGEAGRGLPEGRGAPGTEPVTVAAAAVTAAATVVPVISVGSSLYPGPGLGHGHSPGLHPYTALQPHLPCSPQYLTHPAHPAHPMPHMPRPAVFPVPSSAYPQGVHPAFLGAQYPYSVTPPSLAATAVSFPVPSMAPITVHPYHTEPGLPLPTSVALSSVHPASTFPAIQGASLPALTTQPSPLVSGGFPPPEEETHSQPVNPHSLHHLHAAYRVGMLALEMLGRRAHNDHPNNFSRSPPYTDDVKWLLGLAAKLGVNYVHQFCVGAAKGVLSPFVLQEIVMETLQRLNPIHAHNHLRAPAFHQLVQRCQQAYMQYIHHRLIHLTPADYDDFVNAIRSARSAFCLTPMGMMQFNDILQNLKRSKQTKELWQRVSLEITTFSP
# UniProt Q3UMR0: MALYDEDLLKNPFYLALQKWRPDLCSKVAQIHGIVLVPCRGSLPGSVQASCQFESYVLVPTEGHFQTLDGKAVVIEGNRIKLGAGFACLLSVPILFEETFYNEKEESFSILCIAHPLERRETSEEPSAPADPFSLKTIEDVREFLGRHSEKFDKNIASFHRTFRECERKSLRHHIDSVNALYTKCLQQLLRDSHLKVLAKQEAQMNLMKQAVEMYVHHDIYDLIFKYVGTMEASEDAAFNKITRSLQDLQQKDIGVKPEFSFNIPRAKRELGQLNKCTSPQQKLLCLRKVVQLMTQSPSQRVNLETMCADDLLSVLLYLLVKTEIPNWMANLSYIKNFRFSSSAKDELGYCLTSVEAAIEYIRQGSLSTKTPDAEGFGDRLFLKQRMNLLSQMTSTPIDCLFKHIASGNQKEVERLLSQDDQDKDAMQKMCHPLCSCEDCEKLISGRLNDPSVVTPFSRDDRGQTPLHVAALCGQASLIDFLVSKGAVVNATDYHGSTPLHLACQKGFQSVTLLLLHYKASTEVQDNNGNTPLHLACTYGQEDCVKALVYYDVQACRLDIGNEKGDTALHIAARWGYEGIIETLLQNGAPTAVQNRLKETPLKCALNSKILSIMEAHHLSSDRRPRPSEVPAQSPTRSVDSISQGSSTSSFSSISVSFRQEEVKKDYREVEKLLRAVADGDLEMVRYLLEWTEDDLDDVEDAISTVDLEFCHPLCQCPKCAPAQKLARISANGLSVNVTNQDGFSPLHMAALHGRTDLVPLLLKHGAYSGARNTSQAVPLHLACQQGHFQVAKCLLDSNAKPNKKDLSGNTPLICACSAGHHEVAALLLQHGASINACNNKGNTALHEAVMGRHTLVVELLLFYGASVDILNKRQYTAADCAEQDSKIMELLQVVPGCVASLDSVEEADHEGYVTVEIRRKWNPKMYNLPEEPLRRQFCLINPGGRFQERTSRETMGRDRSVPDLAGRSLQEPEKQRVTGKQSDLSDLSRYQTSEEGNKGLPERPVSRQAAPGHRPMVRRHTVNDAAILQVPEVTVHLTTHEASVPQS
# UniProt Q566J8: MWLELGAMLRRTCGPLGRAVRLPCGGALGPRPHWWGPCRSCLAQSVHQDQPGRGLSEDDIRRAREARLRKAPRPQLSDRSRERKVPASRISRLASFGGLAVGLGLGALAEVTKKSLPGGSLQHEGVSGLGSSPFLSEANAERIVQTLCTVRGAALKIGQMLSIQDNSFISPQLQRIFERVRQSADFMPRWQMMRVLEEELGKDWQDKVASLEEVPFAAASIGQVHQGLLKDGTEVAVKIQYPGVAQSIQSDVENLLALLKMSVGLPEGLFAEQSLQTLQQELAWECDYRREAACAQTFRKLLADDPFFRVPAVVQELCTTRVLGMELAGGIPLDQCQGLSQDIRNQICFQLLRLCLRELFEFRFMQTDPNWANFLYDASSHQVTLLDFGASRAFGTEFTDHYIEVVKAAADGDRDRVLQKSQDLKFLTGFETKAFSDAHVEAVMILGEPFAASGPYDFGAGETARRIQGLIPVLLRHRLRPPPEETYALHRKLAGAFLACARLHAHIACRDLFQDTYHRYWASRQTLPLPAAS
# This is one part of the list. Most entries show no effect beyond the scatter of the controls.
# Compound: CN[C@@H]1C[C@H]2O[C@@](C)([C@@H]1OC)n1c3ccccc3c3c4c(c5c6ccccc6n2c5c31)C(=O)NC4 [staurosporine]
# Assay: log2 fold change of tryptic peptide abundance, ligand vs vehicle (limited proteolysis) (log2 ratio); higher = more trypsin-susceptible (destabilized)
# Conditions: ligand concentration: 20 uM; sample: mouse liver crude lysate; replicate design: treated separately
row,Target,log2 fold change
1,"UniProt Q3U5Q7 (peptide sequence: IFDDEPTIIRR, peptide start residue: 294)",-0.413
2,"UniProt Q5D1E7 (peptide sequence: KLGYSSSEIHSVLQK, peptide start residue: 57)",0.408
3,"UniProt Q3UHH1 (peptide sequence: AAAELALSCLPHAHALNPNEIQR, peptide start residue: 1360)",-0.267
4,"UniProt Q3UMR0 (peptide sequence: GLPERPVSR, peptide start residue: 1000)",0.786
5,"UniProt Q566J8 (peptide sequence: GLSEDDIR, peptide start residue: 54)",-0.234
